# Results reported in PubChem BioAssay AID1347076 (National Center for Advancing Translational Sciences (NCATS), 2019).
# The whole screen tested about 400,000 compounds, of which about 13,000 (3.2%) were called active. This list was built around the results that the source calls inconclusive (neither active nor inactive); the mix of calls is not that of the screen. The call rests on the fitted dose curve; in most records, active means well fitted cell-killing curve with a large enough effect; inconclusive means small, poorly fitted or top-dose-only effect, or effect the other way; inactive means flat fitted curve, though single readings scatter. A potency beside an inconclusive call is a rough fit, not a confirmed value. A structure can be active in one record and inactive in another.
# Assay: qHTS assay for MDR1-selective chemotherapeutics: Primary screen using the drug-selected MDR subline cells KB-V1; further: nearly all actives have a fitted effect of over 60% in size
# Conditions: KB-V1 MDR cells viability, CellTiter-Glo, 72 h; activity change, negative = cytotoxicity: at 46.1 µM (top of the series)
# Method in brief: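 KB-V1 MDR subline cells in DMEM (phenol-red free, 10% FBS) exposed to compounds in qHTS concentration series for 72 h at 37 degrees C. Viability read by CellTiter-Glo luminescence; concentration-effect curves fitted after normalization and correction.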
# On the % scale 0 is the no-effect control and ±100 the full control effect; potency means the concentration at half of the fitted maximal effect.
SMILES,"activity change, negative = cytotoxicity",Potency
COc1ccc(OC)c(NC(=O)NC2CCCCCCC2)c1,inactive: -1.3%,–
Clc1ccc2nc(-c3ccc(Cl)nc3)[nH]c2c1,–,"inconclusive: 29.1 µM [cytotoxic, partial curve, poor fit]"
CC(C)(C)c1ccc(C(=O)NCCNC(=O)c2ccco2)cc1,–,"inconclusive: 14.6 µM [cytotoxic, partial curve]"
COc1ccc(N2CCN(C(=O)CN(c3ccc(Br)cc3)S(C)(=O)=O)CC2)cc1,–,"inconclusive: 25.9 µM [cytotoxic, partial curve, poor fit]"
O=C(Nc1ccccc1)[C@@H]1CC=C[C@@H]2CCN(C3CCCCC3)C(=O)[C@@H]21,–,"inconclusive: 29.1 µM [rising, single point]"
Cc1cccc(N(CC(N)=O)C2SC(=O)NC2=O)c1 (stereo not given),–,"inconclusive: 25.9 µM [rising, single point]"
Cc1ccc([C@H]2C[C@H](O)[C@@H](n3cc(-c4ccc(F)cc4)nn3)CN2CC2CCCCC2)cc1,inactive: -2.43%,–
CN(C)c1ccc(/C=C2\NC(=O)NC2=O)cc1,–,"inconclusive: 29.1 µM [cytotoxic, single point]"
CCCCCCCCC(=O)NNC(=O)c1c(O)c2ccccc2n(CC)c1=O,–,"inconclusive: 29.1 µM [cytotoxic, single point]"
O=C(Nc1ccc(OCC(=O)N2CCOCC2)cc1)Nc1cccc2ccccc12,inactive: -0.0761%,–
COc1ccc(CCNC(=O)C(=O)NCc2cccs2)cc1OC,–,"inconclusive: 16.4 µM [cytotoxic, single point]"
C=CCSc1nc2c(cnn2-c2ccccc2)c(=O)n1N,–,"inconclusive: 18.4 µM [cytotoxic, single point]"
O=C1/C(=C\c2ccccn2)SC(=S)N1Nc1ncc(C(F)(F)F)cc1Cl,inactive: -16.4%,–
CC1=NN(c2ccc([N+](=O)[O-])cc2)C(=O)/C1=C\N(C)C,–,active: 10.3 µM
COc1ccc(S(=O)(=O)N(CC(=O)NCc2ccncc2)c2cc(C)cc(C)c2)cc1OC,inactive: -3.36%,–
Cc1c(C)c2c(OCC(=O)Nc3ccc(CCO)cc3)cc3c(c2oc1=O)CCC(C)(C)O3,–,"inconclusive: 29.1 µM [rising, single point]"
O=C(O)Cn1cc2c(n1)CCCC2,inactive: 0%,–
O=C(O)c1cc(-c2cccs2)[nH]n1,–,"inconclusive: 29.1 µM [rising, partial curve, poor fit]"
O=C(CN(c1ccccc1)S(=O)(=O)c1ccccc1)NCCSc1nc2ccccc2s1,–,"inconclusive: 10.3 µM [cytotoxic, single point]"
CCCCCCCC(=O)N/N=C/c1ccncc1,–,"inconclusive: 29.1 µM [rising, single point]"
CCOc1ccc(C(=O)N2CCN(S(=O)(=O)c3cccs3)CC2)c(OCC)c1,inactive: 1.37%,–
Cc1c(C(C)(C)C)sc(=NC(=O)c2ccccc2O)n1C,–,"inconclusive: 16.4 µM [cytotoxic, single point]"
Cc1ccc(S(=O)(=O)N2CCN(C(=O)CCC(=O)NCCc3ccc(S(N)(=O)=O)cc3)CC2)c(C)c1,–,"inconclusive: 13 µM [rising, partial curve]"

SMILES,"activity change, negative = cytotoxicity",Potency
O=C(Nc1cc(-c2ccccc2)[nH]n1)c1ccc(Cl)cc1,–,"inconclusive: 16.4 µM [cytotoxic, partial curve]"
COC(=O)c1ccc(C(=O)OC)c(NC(=S)N2CC(C)CC(C)C2)c1 (stereo not given),–,active: 14.6 µM
O=C(c1ccccc1Sc1c(Cl)cccc1[N+](=O)[O-])N1CCOCC1,–,"inconclusive: 23.1 µM [cytotoxic, partial curve, poor fit]"
COc1ccc(C(=O)Nc2oc(-c3ccccc3)c(-c3ccccc3)c2C#N)cc1,–,"inconclusive: 3.26 µM [cytotoxic, full curve]"
CSc1cccc(NC(=S)N(CCCN2CCC(C)CC2)Cc2cccs2)c1,–,"inconclusive: 7.31 µM [cytotoxic, partial curve]"
COc1ccc(C)cc1-n1c(-c2ccc(Cl)cc2)cc2c1CC(C)(C)CC2=O,inactive: 2.67%,–
COc1ccc(S(=O)(=O)N2CCCC2CNC(=O)C(=O)NCc2ccccc2Cl)cc1 (stereo not given),–,"inconclusive: 16.4 µM [cytotoxic, single point]"
O=C(O)CCNC(=O)COc1ccc2c3c(c(=O)oc2c1)CCCC3,–,"inconclusive: 14.6 µM [rising, partial curve, poor fit]"
CC(=O)N1CCN(Cc2nc3cc(NC(=O)c4ccccc4Cl)ccc3n2C)CC1,inactive: 6.26%,–
Cc1cccn2c(=O)c3cc(C(=O)NCC(C)C)sc3nc12,–,"inconclusive: 29.1 µM [cytotoxic, single point]"
CNC(=O)C1CC(=O)N(c2ccc(OCC(=O)N3CCCC3)cc2)C1 (stereo not given),–,"inconclusive: 18.4 µM [rising, single point]"
CN1CCN(CCC(=O)N2c3ccccc3Sc3ccc(C(F)(F)F)cc32)CC1,–,"inconclusive: 6.51 µM [cytotoxic, partial curve, poor fit]"
O=C(O)c1cccc(Cn2c(Cl)c(/C=N/NC(=O)c3ccco3)sc2=O)c1,–,"inconclusive: 29.1 µM [rising, single point]"
O=C1CC(NCC2CCCO2)C(=O)N1c1ccc(F)cc1 (stereo not given),–,"inconclusive: 20.6 µM [rising, single point]"
CCC(=O)NC(=S)Nc1ccc(NC(=O)c2ccco2)c(OC)c1,inactive: 0%,–
CN(C)S(=O)(=O)c1cccc(NC(=O)COC(=O)c2c[nH]c(=O)[nH]c2=O)c1,inactive: -2.85%,–
COc1ccc(CCNC(=O)CSc2nc(-c3ccc(OC)c(OC)c3)ccc2C#N)cc1,–,"inconclusive: 10.3 µM [cytotoxic, partial curve]"
CC(C)N(Cc1ccccc1)C(=O)c1nc(-c2ccc(Cl)cc2)n2c1CCCCC2,–,active: 16.4 µM
CN(Cc1ccccc1)C(=O)c1oc(=O)c2ccccc2c1-c1ccccc1,–,active: 8.2 µM
COc1cccc(NC(=O)C2(C)CCN2CCc2ccccc2)c1 (stereo not given),inactive: 3.94%,–
CCCCNc1c(-c2ccc(SC3CCCCC3)cc2)nc2cnccn12,–,active: 37.2 µM
O=C(CCCN1C(=O)/C(=C/c2cccc(Br)c2)SC1=S)N1CCOCC1,–,"inconclusive: 32.6 µM [cytotoxic, single point]"

# Whole records from above. Values in the order: activity change, negative = cytotoxicity | Potency
# `COC(=O)c1ccc(C(=O)OC)c(NC(=S)N2CC(C)CC(C)C2)c1` (stereo not given) reads – | active: 14.6 µM
# `O=C(c1ccccc1Sc1c(Cl)cccc1[N+](=O)[O-])N1CCOCC1` reads – | inconclusive: 23.1 µM [cytotoxic, partial curve, poor fit]
